What all share (assay): Subcutaneously transplanted tumors in nude mice
For experiment [1], the system named is human colon cancer HCT-116. Format: in vivo, BALB/cA nude mice. To be noted: 50 mg/kg qd × 3w iv, after three weeks. As for the experimental part: The compound 1-3 is powder and includes three dosage groups: 20 mg/kg, 10 mg/kg and 5 mg/kg. The commercially available Zolinza (SAHA) is used as a positive control. The solvents are isopropanol and anhydrous ethanol (mixed in the volume ratio of 1:1). The test sample is dissolved with solvents and physiological saline in the ratio of 1:1 for use, and the above solvents and physiological saline are dissolved in the ratio of 1:1 as a negative control.
The subjects are female BALB/cA nude mice with the weight of 16±2 g and at the age of 4-5 weeks, purchased from Shanghai Institute of Materia Medica, Chinese Academy of Sciences (production certificate NO. SCXK (Shanghai) 2008-0017). […]
Tumor tissues in the vigorous growth period are cut into about 1.5 mm^3, and inoculated to the right axilla subcutaneous layer of the nude mice under aseptic conditions. For the subcutaneously transplanted tumors of the nude mice, the diameter of the transplanted tumors is measured by a vernier caliper. […] The diameter of the transplanted tumors is measured twice per week in the whole experimental process, and meanwhile the weight of the mice is weighed. […]
The experimental methods and processes are the same as Embodiment 100. […] The tumor inhibition rate is calculated according to the method in Embodiment 100.

The test system of experiment [2] is Human Lung Caner Cell NCI-H1975. It counts as in vivo. To be noted: 50 mg/kg. As for the experimental part: (§1) Tumor tissues in the vigorous growth period are cut into about 1.5 mm^3, and inoculated to the right axilla subcutaneous layer of the nude mice under aseptic conditions. For the subcutaneously transplanted tumors of the nude mice, the diameter of the transplanted tumors is measured by a vernier caliper. The mice are randomly grouped after the tumors grow to 100-200 mm^3. 20 mg/kg, 10 mg/kg and 5 mg/kg of the compound 1-3 is administrated to the mice by caudal veins three times each week, for three successive weeks. 50 mg/kg of positive control pharmaceutical SAHA is administrated to the mice once every day, for three successive weeks. The diameter of the transplanted tumors is measured twice per week in the whole experimental process, and meanwhile the weight of the mice is weighed. The calculation formula of tumor volume (TV) is TV=½×a×b^2, where a and b represent length and width, respectively.
(§2) The relative tumor volume (RTV) is calculated according to the measured results, with the following calculation formula: RTV=Vt/V0, where V0 is the tumor volume obtained by measurement during administration in different cages (i.e., d0), Vt is the tumor volume obtained by measurement at each time. The evaluation indexes of the antitumor activity are: 1) the relative tumor proliferation ratio T/C (%), the calculation formula of the relative tumor proliferation ratio is as follows: T/C(%)=(TRTV/CRTV)×100%, where TRTV is the treatment group RTV, and CRTV is the negative control group RTV; 2) the tumor volume growth inhibition ratio GI %, the calculation formula of the tumor volume growth inhibition ratio is as follows: GI %=[1−(TVt−TV0)/(CVt−CT0)]×100%, where TVt is the tumor volume of the treatment group measured at each time, TV0 is the tumor volume of the treatment group obtained during administration in different cages, CVt is the tumor volume of the control group measured at each time, and CV0 is the tumor volume of the control group obtained during administration in different cages; and 3) the tumor weight inhibition ratio, the calculation formula of the tumor weight inhibition ratio is as follows: the tumor weight inhibition ratio. (Wc−WT)Wc×100%, where Wc is the tumor weight of the control group, and WT is the tumor weight of the treatment group.
(§3) The experimental methods are the same as Embodiment 100. Solvents, SAHA (50 mg/kg), the compound 1-3 (20 mg/kg), the compound 1-6 (20 mg/kg) and the compound 1-8 (20 mg/kg) are administrated to mice with different tumors, respectively. The tumor inhibition rates are calculated according to the methods in Embodiment 100.

Another experiment deals with Human Melanoma Cell A875. Format: in vivo. To be noted: 50 mg/kg. The procedure: as §1, §2, §3
Experiment [3] relates to Human Lymphoma Cell Ramos. Format: in vivo. To be noted: 50 mg/kg. As for the experimental part: as §1, §2, §3
Experiment [4] deals with Human Blood Acute Monocytic Leukemia U937. Format: in vivo. The conditions noted are these: 50 mg/kg. The procedure:
as §1, §2, §3

The test system of experiment [5] is Human Gastric Adenocarcinoma Cell BGC-823. It counts as in vivo. The conditions noted are these: 50 mg/kg. As for the experimental part:
as §1, §2, §3

On to `O=C(CCCCCCC(=O)Nc1ccccc1)NO` [SAHA, suberoylanilide hydroxamic acid, reference compound], for which the entries for the “1-T/C tumor inhibition rate” value in experiment [1] (Table 1.1) and in experiment [1] (Table 2.1) were 52.99% and 56.32%, respectively. The “Tumor Inhibition Rate (1 − T/C) × 100%” value is 58.03% in experiment [2]; 62.01% with Human Melanoma Cell A875; 57.81% in experiment [3]; 63.22% in experiment [4]; 54.89% in experiment [5].

The values are drawn from patent US8933195B2, “Histone deacetylase inhibitors and synthetic method thereof and use thereof in manufacture of medicaments” (Nanjing Yoko Biomedical R & D Ltd., priority 2011, dated 2015).
